Data on one compound can be found in patent US9528155B2, “In vitro method for determining immunotoxicity of a compound” (UNIVERSITEIT MAASTRICHT, priority 2012, dated 2016).

The structures appear in SMILES notation.

Holding throughout (assay type): cell-based, human
Common to all, as to conditions: 6 h exposure at sub-cytotoxic exposure conc. of Tables 1/2, vs vehicle control, N=3, below -1.0 = underexpression

One experiment concerns HMGCS1. Put plainly: Fluidigm multiplex real-time quantitative PCR of marker gene HMGCS1 in exposed Jurkat cells.
In another experiment the test system is CRIM1. Nature of the experiment: Fluidigm multiplex real-time quantitative PCR of marker gene CRIM1 in exposed Jurkat cells.
For another experiment, the system named is CHAC1. Nature of the experiment: Fluidigm multiplex real-time quantitative PCR of marker gene CHAC1 in exposed Jurkat cells.

Consider `NS(=O)(=O)c1cc(C(=O)O)c(NCc2ccco2)cc1Cl` [FURO, furosemide], for which the “Expression levels of marker genes upon exposure: HMGCS1 (Fold Change)” value in the experiment on HMGCS1 was 1.1 ± 0.2. Moreover, the “Expression levels of marker genes upon exposure: CRIM1 (Fold Change)” value with CRIM1 stood at 1.4 ± 0.5. Also, in the experiment on CHAC1, the “Expression levels of marker genes upon exposure: CHAC1 (Fold Change)” value is 1.6 ± 1.6.
